Drawing on publication doi:10.1101/2021.10.26.465890, this text covers binding for 4 molecules.

By UniProt entry, the sequences of proteins in these tests, tags left out. Where a name states a change or a piece, a line headed by the entry shows the natural chain unless it says otherwise. Chains listed by the source or under a name are the forms on record and can include a tag or linker.
BioID2-DNAJB6b (O75190, form named): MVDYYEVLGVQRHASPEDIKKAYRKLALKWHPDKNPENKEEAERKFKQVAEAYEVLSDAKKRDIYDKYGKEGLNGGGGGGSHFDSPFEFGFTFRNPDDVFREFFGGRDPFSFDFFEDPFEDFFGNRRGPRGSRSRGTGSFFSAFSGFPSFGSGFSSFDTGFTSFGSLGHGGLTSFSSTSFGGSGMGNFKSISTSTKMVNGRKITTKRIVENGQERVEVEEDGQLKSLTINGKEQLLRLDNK
UniProt P49790: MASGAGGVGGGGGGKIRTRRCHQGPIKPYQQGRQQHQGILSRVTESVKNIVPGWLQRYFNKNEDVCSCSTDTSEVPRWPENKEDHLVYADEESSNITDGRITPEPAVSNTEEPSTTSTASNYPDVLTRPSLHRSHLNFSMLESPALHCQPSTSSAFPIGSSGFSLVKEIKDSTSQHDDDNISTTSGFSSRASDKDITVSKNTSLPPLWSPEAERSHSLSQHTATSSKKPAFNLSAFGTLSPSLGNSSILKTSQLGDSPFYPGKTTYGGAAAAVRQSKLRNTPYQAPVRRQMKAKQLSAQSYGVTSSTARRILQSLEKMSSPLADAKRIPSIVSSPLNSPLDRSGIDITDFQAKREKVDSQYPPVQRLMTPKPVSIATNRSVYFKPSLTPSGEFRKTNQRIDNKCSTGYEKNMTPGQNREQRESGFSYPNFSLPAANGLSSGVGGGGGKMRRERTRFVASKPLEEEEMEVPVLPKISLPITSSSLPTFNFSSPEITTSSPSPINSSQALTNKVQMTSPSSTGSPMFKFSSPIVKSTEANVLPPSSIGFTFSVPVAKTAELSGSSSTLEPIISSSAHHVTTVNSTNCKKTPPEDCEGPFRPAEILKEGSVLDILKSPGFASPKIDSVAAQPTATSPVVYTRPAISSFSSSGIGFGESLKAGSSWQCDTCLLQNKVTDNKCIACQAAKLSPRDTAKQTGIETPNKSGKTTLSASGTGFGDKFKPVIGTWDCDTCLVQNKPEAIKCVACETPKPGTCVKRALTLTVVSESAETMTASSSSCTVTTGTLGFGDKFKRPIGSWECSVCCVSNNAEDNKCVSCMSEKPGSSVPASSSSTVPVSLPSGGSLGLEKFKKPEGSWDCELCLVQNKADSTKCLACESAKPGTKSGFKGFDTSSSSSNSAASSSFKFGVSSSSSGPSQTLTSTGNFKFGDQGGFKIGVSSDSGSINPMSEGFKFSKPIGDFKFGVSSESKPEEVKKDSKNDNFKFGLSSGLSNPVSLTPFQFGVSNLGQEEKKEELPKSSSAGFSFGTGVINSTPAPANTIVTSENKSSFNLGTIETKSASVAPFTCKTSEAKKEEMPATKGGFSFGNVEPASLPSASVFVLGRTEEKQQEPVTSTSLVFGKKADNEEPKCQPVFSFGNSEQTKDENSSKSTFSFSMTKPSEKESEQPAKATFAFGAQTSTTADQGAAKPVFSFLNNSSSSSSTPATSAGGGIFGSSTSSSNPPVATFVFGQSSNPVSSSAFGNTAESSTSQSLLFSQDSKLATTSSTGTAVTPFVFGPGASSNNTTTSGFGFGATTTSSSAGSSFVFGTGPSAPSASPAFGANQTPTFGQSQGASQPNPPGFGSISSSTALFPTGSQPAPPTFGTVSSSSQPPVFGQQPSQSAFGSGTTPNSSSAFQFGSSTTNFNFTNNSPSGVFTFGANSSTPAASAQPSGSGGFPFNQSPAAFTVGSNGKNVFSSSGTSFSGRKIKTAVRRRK
UniProt Q14974: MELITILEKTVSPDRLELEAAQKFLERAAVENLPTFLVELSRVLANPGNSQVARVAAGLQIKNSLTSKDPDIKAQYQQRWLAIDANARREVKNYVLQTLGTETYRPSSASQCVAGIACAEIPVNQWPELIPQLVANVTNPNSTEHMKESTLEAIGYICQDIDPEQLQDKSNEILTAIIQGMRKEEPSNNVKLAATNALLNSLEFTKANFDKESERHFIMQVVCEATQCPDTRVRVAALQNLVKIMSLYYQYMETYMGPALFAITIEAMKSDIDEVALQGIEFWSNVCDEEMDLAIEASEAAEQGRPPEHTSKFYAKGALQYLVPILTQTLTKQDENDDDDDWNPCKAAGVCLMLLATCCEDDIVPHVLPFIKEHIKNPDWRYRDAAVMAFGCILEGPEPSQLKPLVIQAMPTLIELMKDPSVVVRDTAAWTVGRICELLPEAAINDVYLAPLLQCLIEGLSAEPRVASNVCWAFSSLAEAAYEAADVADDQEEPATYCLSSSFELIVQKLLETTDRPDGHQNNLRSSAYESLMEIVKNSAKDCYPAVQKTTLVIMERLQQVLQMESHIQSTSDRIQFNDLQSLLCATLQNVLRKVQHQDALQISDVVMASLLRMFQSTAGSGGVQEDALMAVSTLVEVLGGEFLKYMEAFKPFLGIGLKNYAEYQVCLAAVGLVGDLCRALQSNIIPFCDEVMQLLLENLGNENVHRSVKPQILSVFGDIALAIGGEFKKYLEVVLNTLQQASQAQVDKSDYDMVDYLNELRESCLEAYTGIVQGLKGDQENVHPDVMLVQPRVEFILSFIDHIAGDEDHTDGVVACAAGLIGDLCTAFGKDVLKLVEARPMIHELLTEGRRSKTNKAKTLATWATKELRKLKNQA

B1: Nup133 (protein, UniProt Q8WUM0 1-1156)
chain: MFPAAPSPRTPGTGSRRGPLAGLGPGSTPRTASRKGLPLGSAVSSPVLFSPVGRRSSLSSRGTPTRMFPHHSITESVNYDVKTFGSSLPVKVMEALTLAEVDDQLTINIDEGGWACLVCKEKLIIWKIALSPITKLSVCKELQLPPSDFHWSADLVALSYSSPSGEAHSTQAVAVMVATREGSIRYWPSLAGEDTYTEAFVDSGGDKTYSFLTAVQGGSFILSSSGSQLIRLIPESSGKIHQHILPQGQGMLSGIGRKVSSLFGILSPSSDLTLSSVLWDRERSSFYSLTSSNISKWELDDSSEKHAYSWDINRALKENITDAIWGSESNYEAIKEGVNIRYLDLKQNCDGLVILAAAWHSADNPCLIYYSLITIEDNGCQMSDAVTVEVTQYNPPFQSEDLILCQLTVPNFSNQTAYLYNESAVYVCSTGTGKFSLPQEKIVFNAQGDSVLGAGACGGVPIIFSRNSGLVSITSRENVSILAEDLEGSLASSVAGPNSESMIFETTTKNETIAQEDKIKLLKAAFLQYCRKDLGHAQMVVDELFSSHSDLDSDSELDRAVTQISVDLMDDYPASDPRWAESVPEEAPGFSNTSLIILHQLEDKMKAHSFLMDFIHQVGLFGRLGSFPVRGTPMATRLLLCEHAEKLSAAIVLKNHHSRLSDLVNTAILIALNKREYEIPSNLTPADVFFREVSQVDTICECLLEHEEQVLRDAPMDSIEWAEVVINVNNILKDMLQAASHYRQNRNSLYRREESLEKEPEYVPWTATSGPGGIRTVIIRQHEIVLKVAYPQADSNLRNIVTEQLVALIDCFLDGYVSQLKSVDKSSNRERYDNLEMEYLQKRSDLLSPLLSLGQYLWAASLAEKYCDFDILVQMCEQTDNQSRLQRYMTQFADQNFSDFLFRWYLEKGKRGKLLSQPISQHGQLANFLQAHEHLSWLHEINSQELEKAHATLLGLANMETRYFAKKKTLLGLSKLAALASDFSEDMLQEKIEEMAEQERFLLHQETLPEQLLAEKQLNLSAMPVLTAPQLIGLYICEENRRANEYDFKKALDLLEYIDEEEDININDLKLEILCKALQRDNWSSSDGKDDPIEVSKDSIFVKILQKLLKDGIQLSEYLPEVKDLLQADQLGSLKSNPYFEFVLKANYEYYVQGQI

Results are given in words; binding and its absence hold for the method and conditions named. Binding seen in cells or lysates may run through a third protein. Here binding means that the protein was enriched with, or labelled near, the bait; the list need not be complete. No binding means not detected with the bait.

For this test, the target named is BioID2-DNAJB6b (UniProt O75190). The test is described as follows: proximity labelling.
In the case of Nup153 (from UniProt P49790 1-1475), the binding entry was “binds”.

For “GFP-Nup153FG (aa 875-1475) (from UniProt P49790 875-1475) (domain or fragment)”, the binding entry is reported as “binds”.

On to importin β (from UniProt Q14974 1-876), for which the binding entry is “binds”.

Take B1: the binding entry was “no binding”.
